Assay results as given in patent US10772896B2, “Process for preparing a dry powder formulation comprising an anticholinergic, a corticosteroid and a beta-adrenergic” (CHIESI FARMACEUTICI S.P.A., priority 2015, dated 2020).
Counter-ions that a name gives are not always drawn.

Experiment: Uniformity of distribution of the active ingredients in the blend (10 samples, HPLC)
Type: physicochemical
Conditions: dry powder formulation of Example 2; mean value ± RSD
Protocol: The uniformity of distribution of the active ingredients was evaluated by withdrawing 10 samples from different parts of the blend and evaluated by HPLC

COc1ccc(CC(C)NCC(O)c2ccc(O)c(NC=O)c2)cc1 (stereo not shown) [FF, formoterol fumarate dihydrate]
Uniformity of distribution: 100.5 (±1.5)
